Assay results: article PMC7322359

Target: StAR Related Lipid Transfer Domain Containing 10 (rat (endogenous in INS1 (832/13)))
Test: co-IP; endogenous STARD10 immunoprecipitated from INS1 (832/13) cells; Kir6.2 detected by Western (immuno-)blot (Supplemental Figure 4)

B1: ATP-sensitive inward rectifier potassium channel 11 (protein, UniProt P70673 1-390)
chain: MLSRKGIIPEEYVLTRLAEDPTEPRYRTRERRARFVSKKGNCNVAHKNIREQGRFLQDVFTTLVDLKWPHTLLIFTMSFLCSWLLFAMVWWLIAFAHGDLAPGEGTNVPCVTSIHSFSSAFLFSIEVQVTIGFGGRMVTEECPLAILILIVQNIVGLMINAIMLGCIFMKTAQAHRRAETLIFSKHAVITLRHGRLCFMLRVGDLRKSMIISATIHMQVVRKTTSPEGEVVPLHQVDIPMENGVGGNSIFLVAPLIIYHVIDSNSPLYDLAPSDLHHHQDLEIIVILEGVVETTGITTQARTSYLADEILWGQRFVPIVAEEDGRYSVDYSKFGNTVKVPTPLCTARQLDEDRSLLDALTLASSRGPLRKRSVAVAKAKPKFSISPDSLS
  binding: binds

No constants are given. Whether binding was seen depends on the method and setting. Binding seen in cells or lysates may run through a third protein. Binding can be weak; no strength is given.
